Experimental data: PubChem BioAssay AID1259415 (National Center for Advancing Translational Sciences (NCATS), 2018)
About 18,000 (4.4%) of roughly 410,000 compounds were called active. This list was built around the results that the source calls inconclusive (neither active nor inactive); the mix of calls is not that of the screen. Cut-off read from the data, not from the text of the source: active = activity change below about -60%; inconclusive = no clear call, values can overlap the other calls; inactive = above about -39%.

Experiment: qHTS Assay for inhibitors of the human cytomegalovirus (HCMV)
Conditions: HFF cells, HCMV-luciferase reporter, 72 h; at 57.5 µM; hits give low values
Procedure, shortened: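 Steps: HFFs plated, 16 h 37C; compounds added; HCMV-luciferase added to MOI 1 PFU/cell; 72 h 37C; OneGlo reagent, 5 min room temperature; luminescence read, normalized to controls.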
% is set by controls: 0 for no effect and ±100 for the full control effect.

Question: Which activity change, negative = inhibition does the source give for `CCS(=O)(=O)c1nc(S(=O)(=O)c2ccc(Cl)cc2)c(N2CCCC2)s1` here?
Answer: inactive: -19.9%

Question: Which activity change, negative = inhibition does the source give for `COCCNC(=O)c1ccc2c(c1)N(Cc1cc(C)ccc1C)C(=O)c1ccccc1S2(=O)=O` here?
Answer: inconclusive: -49%

Question: Which activity change, negative = inhibition does the source give for `CN1CCN(c2ccncc2S(=O)(=O)N2CCCCC2)CC1` here?
Answer: inconclusive: -45.8%

Question: Which activity change, negative = inhibition does the source give for `Cc1ccc(S(=O)(=O)N2CCCC2)cc1[N+](=O)[O-]` here?
Answer: inactive: -7.05%

Question: With `COc1ccc(OC)c(NC(=O)CSc2cn(CC(=O)N3CCCCCC3)c3ccccc23)c1` as the compound, how does the activity change, negative = inhibition read?
Answer: inconclusive: -59.6%

Question: With `NC(=S)n1[nH]c(-c2ccccc2)c(N=Nc2ccccc2C(=O)N2CCOCC2)c1=O` as the compound, how does the activity change, negative = inhibition read?
Answer: inconclusive: -52.6%

Question: With `CCOC(=O)C1CCN(C(=O)CCc2c(C)nc3c(-c4ccc(F)cc4)c(C)nn3c2C)CC1` as the compound, how does the activity change, negative = inhibition read?
Answer: inconclusive: -41.1%

Question: Which activity change, negative = inhibition does the source give for `CCCc1[nH]n(-c2ccc(F)cc2)c(=O)c1C=Nc1cccc(F)c1` here?
Answer: inconclusive: -45.8%

Question: Which activity change, negative = inhibition does the source give for `NNC(=O)c1oc2nc(-c3cccs3)cc(-c3ccco3)c2c1N` here?
Answer: inconclusive: -52.6%

Question: For `CN(C)S(=O)(=O)c1ccc(Nc2nc(C3CC3)nc3c2nnn3Cc2ccccc2Cl)cc1`, which activity change, negative = inhibition is on record?
Answer: active: -78.7%

Question: For `Cc1ccc(Cl)cc1N1CCN(C(c2ccc(C#N)cc2)c2nnnn2C2CCCC2)CC1` (stereo not given), which activity change, negative = inhibition is on record?
Answer: inconclusive: -42.1%

Question: For `Cc1cc(C)cc(OCC(=O)N/N=C\c2cn(C)nc2C)c1`, which activity change, negative = inhibition is on record?
Answer: inconclusive: -57.4%

Question: With `CCc1ccc(NC(=O)CN2C(=O)C(c3ccc(F)cc3)=NC2(C)C)cc1` as the compound, how does the activity change, negative = inhibition read?
Answer: inconclusive: -47.4%

Question: With `CC(C)(C)c1ccccc1OCC(=O)Nc1ccccc1C(=O)NCc1cccnc1` as the compound, how does the activity change, negative = inhibition read?
Answer: inconclusive: -43%

Question: Which activity change, negative = inhibition does the source give for `COc1ccccc1N1CCN(c2ccnc3cc(Cl)ccc23)CC1` here?
Answer: active: -63.3%

Question: Which activity change, negative = inhibition does the source give for `Cn1cc(C(=O)N/N=C/c2c(O)ccc3ccccc23)ccc1=O` here?
Answer: active: -98.9%

Question: With `CC(=O)N1CCc2cc(S(=O)(=O)NC(CC(C)C)C(=O)NCCc3ccc(C)cc3)ccc21` (stereo not given) as the compound, how does the activity change, negative = inhibition read?
Answer: inactive: 7.25%

Question: With `CCOc1ccc(CCN2C(=O)C(=O)N([C@@H](Cc3ccccc3)CN3CCC[C@H]3CN3C(=O)C(=O)NC[C@@H]3Cc3ccccc3)C[C@@H]2Cc2ccccc2)cc1` as the compound, how does the activity change, negative = inhibition read?
Answer: active: -65.2%

Question: Which activity change, negative = inhibition does the source give for `C=CCN(CC=C)C(=O)CN1C(=O)NC(C)(c2ccc3cc(OC)ccc3c2)C1=O` (stereo not given) here?
Answer: inconclusive: -45%

Question: With `CCN(CC)S(=O)(=O)c1ccc2c(c1)nc(CN(C)C(=O)Nc1cccc(Cl)c1)n2C` as the compound, how does the activity change, negative = inhibition read?
Answer: inconclusive: -48.3%

Question: Which activity change, negative = inhibition does the source give for `Cc1ccnn1CCC(=O)N1CCCC(Nc2ccc(C(C)C)cc2)C1` (stereo not given) here?
Answer: inconclusive: -40.2%

Question: For `CCOc1ccc(C(=O)N2CCN(c3ccccc3)CC2)cc1OCC`, which activity change, negative = inhibition is on record?
Answer: inactive: 30.4%

Question: With `O=C(NCCCN1CCOCC1)C(=O)NCC1OCCN1S(=O)(=O)c1ccc(Br)cc1` (stereo not given) as the compound, how does the activity change, negative = inhibition read?
Answer: inconclusive: -42.1%

Question: Which activity change, negative = inhibition does the source give for `O=C(NNC(=O)C1CC1)c1cc(=O)[nH]c2ccccc12` here?
Answer: inactive: 12.7%

Question: For `Cc1cc(N/N=C/c2ccccc2O)c2ccccc2n1`, which activity change, negative = inhibition is on record?
Answer: inconclusive: -47.5%

Question: With `CC1(C)OC1COc1c2ccoc2cc2oc(=O)ccc12` (stereo not given) as the compound, how does the activity change, negative = inhibition read?
Answer: inconclusive: -58.3%

Question: With `CCOC(=O)N1CCN(C(=O)C(NC(=O)c2ccc(C(C)(C)C)cc2)C(C)C)CC1` (stereo not given) as the compound, how does the activity change, negative = inhibition read?
Answer: active: -61.7%

Question: With `O=C(c1cccs1)N1CCN(S(=O)(=O)c2cccc(Cl)c2Cl)CC1` as the compound, how does the activity change, negative = inhibition read?
Answer: inactive: -37.9%

Question: Which activity change, negative = inhibition does the source give for `Cc1occc1-c1nnc(SCC(=O)N2CCN(c3ccc(F)cc3)CC2)n1C` here?
Answer: inconclusive: -43.7%

Question: For `COc1ccc(Nc2cc(C)c3ccc(O)cc3n2)cc1`, which activity change, negative = inhibition is on record?
Answer: inactive: -39.7%

Question: For `Cc1nc2nc(NCc3cccc(Cl)c3)[nH]n2c(=O)c1Cc1ccccc1`, which activity change, negative = inhibition is on record?
Answer: inactive: 13%

Question: With `COc1ccc(S(=O)(=O)N2CCOC23CCN(C(=O)c2ccccc2Br)CC3)cc1` as the compound, how does the activity change, negative = inhibition read?
Answer: inconclusive: -55.9%

Question: Which activity change, negative = inhibition does the source give for `Cc1ccc(N(C(=O)c2nsc(Cl)c2Cl)C(C(=O)NC2CCCC2)c2ccc(O)cc2)cc1C` (stereo not given) here?
Answer: inconclusive: -59.9%

Question: With `Cc1cccc(C)c1NC(=O)CNC(=O)c1ccncc1` as the compound, how does the activity change, negative = inhibition read?
Answer: inconclusive: -43.5%

Question: Which activity change, negative = inhibition does the source give for `COc1ccc(CCNC(=O)c2cccnc2)cc1` here?
Answer: inactive: 18.3%

Question: For `Cc1oc(-c2ccccc2)nc1C(=O)O`, which activity change, negative = inhibition is on record?
Answer: inactive: 1.3%

Question: With `CC(CNC(=O)c1ccc(CSc2nc3ccncc3n2Cc2ccc(F)cc2)cc1)c1ccccc1` (stereo not given) as the compound, how does the activity change, negative = inhibition read?
Answer: inconclusive: -43.6%

Question: Which activity change, negative = inhibition does the source give for `Cc1ccccc1NC(=S)NCC1CCN(C(C)c2ccccc2)C1` (stereo not given) here?
Answer: inconclusive: -46.1%

Question: With `CCOc1ccc(-c2nnc(SCC(=O)O)n2Cc2ccccc2)cc1` as the compound, how does the activity change, negative = inhibition read?
Answer: inactive: -22.9%

Question: Which activity change, negative = inhibition does the source give for `COc1cccc(C(=O)Nc2cc(-c3cn4cccnc4n3)ccc2C)c1` here?
Answer: inconclusive: -48.8%

Question: For `Cc1occc1-c1nnc(SCC(=O)c2ccc(F)cc2)n1Cc1ccco1`, which activity change, negative = inhibition is on record?
Answer: inactive: -9.87%

Question: For `O=C(/C=C/c1ccc(S(=O)(=O)N2CCOCC2)cc1)N1CCN(c2ccc(F)cc2)CC1`, which activity change, negative = inhibition is on record?
Answer: active: -62.8%

Question: Which activity change, negative = inhibition does the source give for `Cc1ccc(S(=O)(=O)N(C)c2ccc(C(=O)Nc3cccc(C)n3)cc2)cc1` here?
Answer: active: -76.6%

Question: Which activity change, negative = inhibition does the source give for `CN(N)c1nc(-c2ccccc2)nnc1C(F)(F)F` here?
Answer: active: -105%

Question: With `CCOCCc1nnc(NC(=O)c2cc(OC)c(OC)c(OC)c2)s1` as the compound, how does the activity change, negative = inhibition read?
Answer: inactive: 42.3%

Question: With `Cc1onc(-c2c(Cl)cccc2Cl)c1C(=O)N/N=C(\N)COc1ccc(Cl)cc1` as the compound, how does the activity change, negative = inhibition read?
Answer: active: -78.1%

Question: For `COC(=O)C1=C(C)N(c2ccc(Cl)cc2)/C(=C/c2cccs2)C1=O`, which activity change, negative = inhibition is on record?
Answer: inconclusive: -55.6%

Question: Which activity change, negative = inhibition does the source give for `O=C(N/N=C/c1cccnc1)c1cc2ccccc2cc1O` here?
Answer: active: -98%

Question: Which activity change, negative = inhibition does the source give for `CN(C)S(=O)(=O)c1cc(NC(=O)c2ccc(-n3ccnc3)c([N+](=O)[O-])c2)ccc1Cl` here?
Answer: active: -71%

Question: For `O=S(=O)(NCCCc1ccccc1)c1cccc2nsnc12`, which activity change, negative = inhibition is on record?
Answer: inactive: -17.8%

Question: With `CC(C)(CNc1ccc(C(F)(F)F)cc1[N+](=O)[O-])N1CCOCC1` as the compound, how does the activity change, negative = inhibition read?
Answer: active: -66.4%

Question: Which activity change, negative = inhibition does the source give for `Cc1cc(C)c(S(=O)(=O)Nc2ccccc2-c2ccccc2)c(C)c1` here?
Answer: active: -78.6%

Question: Which activity change, negative = inhibition does the source give for `CSc1nnc(-c2sc3cc(Cl)ccc3c2Cl)n1C` here?
Answer: inconclusive: -56.1%

Question: For `c1ccc(COc2cccc(CN3CCCCC3)c2)cc1`, which activity change, negative = inhibition is on record?
Answer: inconclusive: -50.1%

Question: With `O=C(NCc1cccc(C(F)(F)F)c1)c1ccc2c(c1)OCCO2` as the compound, how does the activity change, negative = inhibition read?
Answer: inconclusive: -46.7%
